Data on seven substances can be found in patent EP0425212B1 (dated 1991).

HELM strings list residues between dots; [ac] is acetyl, [am] amide, other brackets name non-standard units.

Data set [1] is described as follows: general procedure: Boc solid-phase peptide synthesis; BHA; EDC/HOBt (solution phase steps). Particulars: whole synthesis, scale 1 mmol.
A short description of data set [2]: general procedure: Boc solid-phase peptide synthesis; 4-methylbenzhydrylamine resin; EDC/HOBt (solution phase steps). Particulars: whole synthesis, scale 1.0 mmol.
The nature of data set [3]: general procedure: Boc solid-phase peptide synthesis; benzhydrylamine (BHA) / 4-methylbenzhydrylamine (MBHA) resin; hydroxymethyl resin; SASRIN for homodetic peptides; EDC/HOBt (solution phase steps). To be noted: cyclisation step.
The nature of data set [4]: general procedure: Boc solid-phase peptide synthesis; MeBHA; EDC/HOBt (solution phase steps). To be noted: whole synthesis.

On to “PEPTIDE1{G.[MeR].G.D.S.E.[am]}$PEPTIDE1,PEPTIDE1,1:R1-6:R3$$$V2.0”, for which, in data set [1], the crude mass turned out to be 680 mg and the crude yield is reported as 100%.
Regarding “PEPTIDE1{[Mba].R.G.D.C.[am]}$PEPTIDE1,PEPTIDE1,1:R3-5:R3$$$V2.0”, in data set [2], the crude mass came to 320 mg.
With “PEPTIDE1{[MeR].G.D.F.R.G.D.F}$PEPTIDE1,PEPTIDE1,8:R2-1:R1$$$V2.0”, the cyclisation yield in data set [3] is listed as 95%.
In data set [4] (scale 1.0 mmol), “PEPTIDE1{[ac].C.R.G.D.S.[MeR].G.D.S.C.[am]}$PEPTIDE1,PEPTIDE1,2:R3-11:R3$$$V2.0” registered a crude mass of 409 mg.
In data set [4] (scale 1.0 mmol), “PEPTIDE1{[ac].C.[MeR].G.D.S.R.G.D.S.C.[am]}$PEPTIDE1,PEPTIDE1,2:R3-11:R3$$$V2.0” registered an isolated mass of 800 mg.
Regarding “PEPTIDE1{[ac].C.[MeR].G.D.[PcsRR].[am]}$PEPTIDE1,PEPTIDE1,2:R3-6:R3$$$V2.0”, the isolated mass in data set [4] (scale 0.5 mmol) stood at 92 mg.
Same read-out and setting: the same measure for “PEPTIDE1{[ac].C.[MeR].G.D.[PcsRS].[am]}$PEPTIDE1,PEPTIDE1,2:R3-6:R3$$$V2.0”: 80 mg.
